Measured values: patent publication EP2570123A1, “Use of 2,4-dichlorobenzyl alcohol having an anaesthetic effect” (Reckitt Benckiser Healthcare (UK) Limited, priority 2007, dated 2009)
At least one structure is not confirmed: it was looked up by name or label, or the drawing left a doubt.

Sequences of proteins named here, by UniProt entry; tags and fusion partners are left off.
UniProt P04775, whole entry: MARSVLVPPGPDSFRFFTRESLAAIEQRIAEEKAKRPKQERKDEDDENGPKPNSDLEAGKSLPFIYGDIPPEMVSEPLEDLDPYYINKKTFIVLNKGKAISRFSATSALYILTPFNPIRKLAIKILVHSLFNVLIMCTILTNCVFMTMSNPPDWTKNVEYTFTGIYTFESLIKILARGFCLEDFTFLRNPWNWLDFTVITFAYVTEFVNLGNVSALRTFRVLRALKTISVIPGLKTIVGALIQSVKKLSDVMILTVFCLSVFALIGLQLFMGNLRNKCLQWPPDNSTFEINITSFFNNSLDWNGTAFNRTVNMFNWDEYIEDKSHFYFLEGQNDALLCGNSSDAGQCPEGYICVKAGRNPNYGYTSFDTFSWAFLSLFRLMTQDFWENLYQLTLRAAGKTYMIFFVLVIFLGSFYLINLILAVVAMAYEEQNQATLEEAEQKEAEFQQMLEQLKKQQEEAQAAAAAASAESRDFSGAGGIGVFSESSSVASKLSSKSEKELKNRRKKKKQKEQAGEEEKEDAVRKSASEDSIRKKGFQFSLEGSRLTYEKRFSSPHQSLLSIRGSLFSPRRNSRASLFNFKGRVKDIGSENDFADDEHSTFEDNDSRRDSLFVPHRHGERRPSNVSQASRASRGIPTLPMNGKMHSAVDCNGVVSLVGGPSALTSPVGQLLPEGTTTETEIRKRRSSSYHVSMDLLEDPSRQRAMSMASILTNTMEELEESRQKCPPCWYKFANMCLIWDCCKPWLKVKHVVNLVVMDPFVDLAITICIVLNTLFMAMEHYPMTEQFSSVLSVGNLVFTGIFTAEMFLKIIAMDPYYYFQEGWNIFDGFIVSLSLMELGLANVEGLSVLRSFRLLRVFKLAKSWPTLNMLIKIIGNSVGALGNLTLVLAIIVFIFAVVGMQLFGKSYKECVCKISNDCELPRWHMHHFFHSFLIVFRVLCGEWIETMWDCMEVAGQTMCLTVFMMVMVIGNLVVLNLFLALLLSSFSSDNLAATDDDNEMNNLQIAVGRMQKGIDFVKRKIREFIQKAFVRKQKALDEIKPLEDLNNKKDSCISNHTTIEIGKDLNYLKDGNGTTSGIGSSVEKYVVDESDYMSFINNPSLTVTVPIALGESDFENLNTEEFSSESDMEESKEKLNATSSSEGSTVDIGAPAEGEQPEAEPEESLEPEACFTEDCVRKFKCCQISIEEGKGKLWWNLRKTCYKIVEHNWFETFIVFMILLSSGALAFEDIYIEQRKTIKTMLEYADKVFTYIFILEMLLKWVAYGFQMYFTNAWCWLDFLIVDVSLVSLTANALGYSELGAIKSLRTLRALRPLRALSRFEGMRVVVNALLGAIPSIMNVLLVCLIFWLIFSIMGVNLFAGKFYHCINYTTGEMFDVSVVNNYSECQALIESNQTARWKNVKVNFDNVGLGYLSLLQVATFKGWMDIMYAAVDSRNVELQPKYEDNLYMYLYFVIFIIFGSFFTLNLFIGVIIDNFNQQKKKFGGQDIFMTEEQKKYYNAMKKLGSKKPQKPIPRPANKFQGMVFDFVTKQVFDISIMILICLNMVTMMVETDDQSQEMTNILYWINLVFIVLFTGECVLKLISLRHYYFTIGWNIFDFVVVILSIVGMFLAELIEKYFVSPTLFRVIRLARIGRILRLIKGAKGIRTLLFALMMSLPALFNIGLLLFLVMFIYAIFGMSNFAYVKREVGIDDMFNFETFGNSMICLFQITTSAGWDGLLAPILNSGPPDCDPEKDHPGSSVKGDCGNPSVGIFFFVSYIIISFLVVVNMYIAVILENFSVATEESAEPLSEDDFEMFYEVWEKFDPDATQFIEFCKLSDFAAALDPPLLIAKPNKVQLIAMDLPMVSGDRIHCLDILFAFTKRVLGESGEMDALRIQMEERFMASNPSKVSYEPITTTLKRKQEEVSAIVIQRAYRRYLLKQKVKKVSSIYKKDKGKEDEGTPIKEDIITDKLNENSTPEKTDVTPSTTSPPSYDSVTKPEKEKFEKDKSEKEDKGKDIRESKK

How the values were obtained:
[1] = target: T1, α-subunit of NaV1.2 neuronal sodium channels (Rattus norvegicus, UniProt P04775)
Procedure: Stably transfected HEK 293 cell lines expressing the α-subunit of NaV1.2 neuronal sodium channels from a rat were used. The expression vector pRc/CMV (Invitrogen, San Diego, USA) was used for mammalian transfection. Transfection was performed using calcium phosphate precipitation. Permanent expression was achieved by selection for resistance to the aminoglycoside antibiotic geneticin G418 (Life Technology, Eggenstein, Germany).
The stock solution was then dissolved directly in bath solution. The bath solution contained [mM] NaCl 140, MgCl2 1.0, KCl 4.0, CaCl2 2.0, Hepes 5.0, dextrose 5.0. Patch electrodes contained [mM] CsCl2 130, MgCl2 2.0, EGTA 5.0, Hepes 10. All solutions were adjusted to 290 mosm 1^-1 by the addition of mannitol and to pH 7.4 by the addition ofCsOH.
Standard whole-cell voltage-clamp experiments were performed at 20°C. Each experiment consisted of test recordings with the drug present at only one concentration, and of drug-free control recordings before and after the test. Each cell was exposed to one test concentration only. […]
Drug effects on the peak current amplitude were assessed at a hyperpolarized membrane potentials (-100 mV and -150mV), at a holding potential close to the normal resting potential in physiological conditions (-70 mV), and, additionally, at -100 mV in the presence of a fraction of slow inactivated channels. […]

[2] = target: T1, α-subunit of NaV1.2 neuronal sodium channels; test: Whole-cell voltage-clamp, double-pulse protocol: steady-state availability (fast inactivation), voltage shift and model-dependent affinity for inactivated channels; assay type: cell-based; design: expressed in transfected cells; host or cells: HEK 293, stably transfected with expression vector pRc/CMV and selected with G418
Procedure: Transfection was performed using calcium phosphate precipitation. […] Successful channel expression was verified electrophysiologically.
The bath solution contained [mM] […] Patch electrodes contained [mM]
Each cell was exposed to one test concentration only.
Experiments with a rise in series resistance were rejected.
Drug binding to inactivated channels is hardly accessible to a direct experimental approach, because inactivated channel states and all drug-bound channel states are unavailable on depolarization. A model-dependent method is generally applied to determine the affinity to fast-inactivated channel states. The voltage-dependence of the block and the affinity for fast-inactivated channel states was further assessed by applying a double-pulse protocol. […]
In control conditions, the parameters of the Boltzmann fits reflect the voltage-dependence of the distribution between resting and fast-inactivated channels (the availability curve). […] The underlying assumption is that the higher amount of channel blockade achieved with consecutive membrane depolarization is determined by the distribution of channels between resting and fast-inactivated states along the voltage axis (i.e. the channel availability curve), and by the different binding affinities of the blocking drug for the two channel states. […]

How did the “sensitivity at -70 mV holding potential compared to hyperpolarized holding potentials” value ([1]; -70 mV versus -100 and/or -150 mV) turn out when `CCCCCc1ccc(C)cc1O` [AMC, amylmetacresol] was run?
Its value is “increased”.

What about the nHR ([1]; Hill coefficient, resting state binding, -150 mV holding potential) of the same compound?
Its nHR is 2.7.

What about the “estimated affinity to inactivated channels compared to resting channels” value [2] of the same compound?
Its value is “several fold higher”.

What about the nHI ([2]; Hill coefficient for inactivated state binding, model fit of Eq.4) of the same compound?
Its nHI is “around 4.2”.
